The values below are quoted from earlier work in patent publication US11680281B2, “Biosynthetic production of steviol glycosides and processes therefore” (Conagen Inc., priority 2016, dated 2023).

SMILES strings stand for the structures.

The conditions of the series: as noted in taste tests; cited from earlier work.
Turning to `C=C1C[C@@]23CC[C@H]4[C@@](C)(CCC[C@@]4(C)C(=O)O[C@@H]4O[C@H](CO)[C@@H](O)[C@H](O)[C@H]4O)[C@@H]2CC[C@]1(O[C@@H]1O[C@H](CO)[C@@H](O)[C@H](O[C@@H]2O[C@H](CO)[C@@H](O)[C@H](O)[C@H]2O)[C@H]1O[C@@H]1O[C@H](CO)[C@@H](O)[C@H](O)[C@H]1O)C3` [rebaudioside A], the after-taste entry is given as “much better than stevioside”.
`C=C1C[C@@]23CC[C@H]4[C@@](C)(CCC[C@@]4(C)C(=O)O[C@@H]4O[C@H](CO)[C@@H](O)[C@H](O)[C@H]4O)[C@@H]2CC[C@]1(O[C@@H]1O[C@H](CO)[C@@H](O)[C@H](O)[C@H]1O[C@@H]1O[C@H](CO)[C@@H](O)[C@H](O)[C@H]1O)C3` [stevioside]: the after-taste result was “bitter after-taste”.
`C=C1C[C@@]23CC[C@H]4[C@@](C)(CCC[C@@]4(C)C(=O)O[C@@H]4O[C@H](CO)[C@@H](O)[C@H](O)[C@H]4O[C@@H]4O[C@H](CO)[C@@H](O)[C@H](O)[C@H]4O)[C@@H]2CC[C@]1(O[C@@H]1O[C@H](CO)[C@@H](O)[C@H](O)[C@H]1O[C@@H]1O[C@H](CO)[C@@H](O)[C@H](O)[C@H]1O)C3` [rebaudioside E]: the after-taste entry was “much better than stevioside”.
